Results taken from publication PMC2848553.
For at least one entry, the source does not settle the construct or the ends of the probe. At least one result comes from cells or an extract, where the contact may be indirect. For part of these data: No signal at the amounts used counts as a negative. For part of these data: At least one verdict rests on a figure or table, not on a statement of the authors.

Chains of the proteins cited; added tags and fusions are not shown. Lines headed by an entry give the natural chain unless they say otherwise; changes in a name come on top.
UniProt Q8BG36: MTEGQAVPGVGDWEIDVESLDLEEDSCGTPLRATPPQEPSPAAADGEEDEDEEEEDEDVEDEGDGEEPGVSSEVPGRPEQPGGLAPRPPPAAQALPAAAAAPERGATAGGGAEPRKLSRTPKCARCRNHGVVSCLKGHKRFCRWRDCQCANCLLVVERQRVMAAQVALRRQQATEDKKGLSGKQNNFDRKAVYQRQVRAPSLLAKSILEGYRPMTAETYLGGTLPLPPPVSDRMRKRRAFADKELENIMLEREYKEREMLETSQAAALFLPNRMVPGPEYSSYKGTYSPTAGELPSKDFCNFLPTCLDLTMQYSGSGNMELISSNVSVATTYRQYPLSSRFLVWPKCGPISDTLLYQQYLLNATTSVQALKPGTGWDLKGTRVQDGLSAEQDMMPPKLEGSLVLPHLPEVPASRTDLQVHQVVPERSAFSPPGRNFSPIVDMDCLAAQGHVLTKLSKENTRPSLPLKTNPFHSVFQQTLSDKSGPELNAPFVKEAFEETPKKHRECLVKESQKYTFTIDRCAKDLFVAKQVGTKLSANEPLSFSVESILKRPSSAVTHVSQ

Each sequence was assayed against Dmrt2-HA (UniProt Q8BG36) (assay: EMSA). Settings: complex disrupted by anti-HA (site not specified); LightShift Chemiluminescent EMSA kit; 40 fmol biotin dsDNA with 1 ug HEK293 extract protein (lysis in 15 mM Tris pH 7.4, 0.5% NP40, stored in 25% glycerol); protein in a lysate after overexpression; protein details: HA; label: 5'-biotin (unlabeled as competitor).

Binding result, binds:
TCTCTGTAGCTCTCATGTAAA (double strand) [Dmrt2BS4], CTGTTTCCTAGTGTAGATCT (double strand) [Dmrt2BS1], TCTGTTTTTCCTGTAACCTC (double strand) [Dmrt2BS3]

These sequences were tested against Dmrt2-HA (UniProt Q8BG36) (assay: competition with a labelled probe). Settings: unlabeled mutant did not abolish binding; LightShift Chemiluminescent EMSA kit; 40 fmol biotin dsDNA with 1 ug HEK293 extract protein (lysis in 15 mM Tris pH 7.4, 0.5% NP40, stored in 25% glycerol); protein in a lysate after overexpression; protein details: HA; label: none (competitor).

Binding result, no binding:
CTGTTTCCTTGTTTTGATCT (double strand) [mutDmrt2BS1], TCTGTTTTTCCTTTTATCTC (double strand) [mutDmrt2BS3], TCTCTTTTGCTCTCATTTTAA (double strand) [mutDmrt2BS4]
